From publication PMC4476799, “Englerin A Agonizes the TRPC4/C5 Cation Channels to Inhibit Tumor Cell Line Proliferation” (PLoS ONE, 2015)
This continues a long series; more values of the same kind are listed elsewhere.

System: cancer cell lines from the cancer cell line encyclopedia (CCLE)
Assay: Cell line profiling (CLiP) proliferation experiment
Format: cell-based
Set-up: ACTIVITY_AREA: scale not given here; AMAX: unit not given here
Description: Compound profiling experiment and data analysis was performed as previously described. Data was imported and plotted using the Tibco Spotfire DXP application. Lines were categorized as sensitive, intermediate and refractory as follows: Amax<-40 & Inflection Point <2 ~ Sensitive, Amax>-20 & Inflection Point >10 ~ Refractory, all else were called Intermediate. Cancer Cell line HG-U133 Plus 2 data was processed and normalized as described. […] Five sets of refractory cell lines were generated from the pool of refractory cell lines trying to match the lineage composition of the set of sensitive cell lines. The limma package was used as previously described to perform the statistical comparison.

[1] = SEM (haematopoietic_and_lymphoid_tissue)
[2] = SK-MEL-2, second row, PRIMARY_SITE (Empty)
[3] = SNU-738 (central_nervous_system)
[4] = SNU-C1 (large_intestine, adenocarcinoma)
[5] = SNU-C5 (large_intestine, adenocarcinoma)
[6] = SR-786 (haematopoietic_and_lymphoid_tissue)
[7] = SR-786 (haematopoietic_and_lymphoid_tissue, anaplastic_large_cell_lymphoma)
[8] = ST486 (haematopoietic_and_lymphoid_tissue)
[9] = ST486 (haematopoietic_and_lymphoid_tissue, Burkitt_lymphoma)
[10] = SU-DHL-4 (haematopoietic_and_lymphoid_tissue)
[11] = SU-DHL-4 (haematopoietic_and_lymphoid_tissue, diffuse_large_B_cell_lymphoma)
[12] = SU-DHL-5 (haematopoietic_and_lymphoid_tissue)
[13] = SU-DHL-5 (haematopoietic_and_lymphoid_tissue, diffuse_large_B_cell_lymphoma)
[14] = SU-DHL-8 (haematopoietic_and_lymphoid_tissue)
[15] = SU-DHL-8 (haematopoietic_and_lymphoid_tissue, diffuse_large_B_cell_lymphoma)
[16] = SU-DHL-10 (haematopoietic_and_lymphoid_tissue)
[17] = SU-DHL-10 (haematopoietic_and_lymphoid_tissue, diffuse_large_B_cell_lymphoma)

With `CC(C)[C@@]12C[C@@H](O)[C@@](C)(O1)[C@@H]1CC[C@@H](C)[C@H]1[C@@H]2OC(=O)/C=C/c1ccccc1` [Englerin B] the ACTIVITY_AREA (Reh cells) was 23.98, the AMAX (Reh cells) was -68.69 and the RESPONSE (Reh cells) was “INTERMEDIATE”. The ACTIVITY_AREA (SCaBER (urinary_tract)) was 14.07, the AMAX (SCaBER (urinary_tract)) was -45.66 and the RESPONSE (SCaBER (urinary_tract)) was “INTERMEDIATE”. For the same compound, the ACTIVITY_AREA [1] was 52.36, the AMAX [1] was -92.78 and the RESPONSE [1] was “INTERMEDIATE”. For the same compound, the ACTIVITY_AREA (SF126 cells) was 16.33, the AMAX (SF126 cells) was -51.64 and the RESPONSE (SF126 cells) was “INTERMEDIATE”. The ACTIVITY_AREA (SH-4 (skin)) was 33.65, the AMAX (SH-4 (skin)) was -3.14 and the RESPONSE (SH-4 (skin)) was “REFRACTORY”. The ACTIVITY_AREA (SH-10-TC (stomach)) was 15.1, the AMAX (SH-10-TC (stomach)) was -43.59 and the RESPONSE (SH-10-TC (stomach)) was “INTERMEDIATE”. The ACTIVITY_AREA (SHP-77 cells) was 31.6, the AMAX (SHP-77 cells) was -35.78 and the RESPONSE (SHP-77 cells) was “INTERMEDIATE”. For the same compound, the ACTIVITY_AREA (SJRH30 (soft_tissue)) was 51.08, the AMAX (SJRH30 (soft_tissue)) was -72.1 and the RESPONSE (SJRH30 (soft_tissue)) was “INTERMEDIATE”. For the same compound, the ACTIVITY_AREA (SJSA-1 cells) was 16.2, the AMAX (SJSA-1 cells) was -50.82 and the RESPONSE (SJSA-1 cells) was “INTERMEDIATE”. The ACTIVITY_AREA (SK-BR-3 cells) was 113.22, the AMAX (SK-BR-3 cells) was -42.92 and the RESPONSE (SK-BR-3 cells) was “INTERMEDIATE”. The ACTIVITY_AREA (SK-CO-1 (large_intestine)) was 18.26, the AMAX (SK-CO-1 (large_intestine)) was -55.85 and the RESPONSE (SK-CO-1 (large_intestine)) was “INTERMEDIATE”. For the same compound, the ACTIVITY_AREA (SK-ES-1 (bone)) was 20.21, the AMAX (SK-ES-1 (bone)) was -73.28 and the RESPONSE (SK-ES-1 (bone)) was “INTERMEDIATE”. For the same compound, the ACTIVITY_AREA (SK-LMS-1 cells) was 30.68, the AMAX (SK-LMS-1 cells) was -47.74 and the RESPONSE (SK-LMS-1 cells) was “INTERMEDIATE”. The ACTIVITY_AREA (SK-LU-1 (lung)) was 14.44, the AMAX (SK-LU-1 (lung)) was -26.13 and the RESPONSE (SK-LU-1 (lung)) was “INTERMEDIATE”. The ACTIVITY_AREA (SK-MEL-1 cells) was 32.43, the AMAX (SK-MEL-1 cells) was -84.28 and the RESPONSE (SK-MEL-1 cells) was “INTERMEDIATE”. The ACTIVITY_AREA (SK-MEL-2 (skin)) was 1.02, the AMAX (SK-MEL-2 (skin)) was 5.8 and the RESPONSE (SK-MEL-2 (skin)) was “REFRACTORY”. The ACTIVITY_AREA [2] was 1.02, the AMAX [2] was 5.8 and the RESPONSE [2] was “REFRACTORY”. For the same compound, the ACTIVITY_AREA (SK-MEL-3 cells) was 63.68, the AMAX (SK-MEL-3 cells) was -13.66 and the RESPONSE (SK-MEL-3 cells) was “REFRACTORY”. For the same compound, the ACTIVITY_AREA (SK-MEL-5 (skin)) was 22.94, the AMAX (SK-MEL-5 (skin)) was -46.63 and the RESPONSE (SK-MEL-5 (skin)) was “INTERMEDIATE”. The ACTIVITY_AREA (SK-MEL-24 (skin)) was 33, the AMAX (SK-MEL-24 (skin)) was -43.01 and the RESPONSE (SK-MEL-24 (skin)) was “INTERMEDIATE”. The ACTIVITY_AREA (SK-MEL-30 (skin)) was 109.54, the AMAX (SK-MEL-30 (skin)) was -50.55 and the RESPONSE (SK-MEL-30 (skin)) was “INTERMEDIATE”. For the same compound, the ACTIVITY_AREA (SK-MES-1 cells) was 30.56, the AMAX (SK-MES-1 cells) was -55.21 and the RESPONSE (SK-MES-1 cells) was “INTERMEDIATE”. For the same compound, the ACTIVITY_AREA (SK-N-AS (autonomic_ganglia)) was 91.35, the AMAX (SK-N-AS (autonomic_ganglia)) was -34.64 and the RESPONSE (SK-N-AS (autonomic_ganglia)) was “INTERMEDIATE”. The ACTIVITY_AREA (SK-N-DZ cells) was 7.35, the AMAX (SK-N-DZ cells) was 8.38 and the RESPONSE (SK-N-DZ cells) was “REFRACTORY”. The ACTIVITY_AREA (SK-N-FI (autonomic_ganglia)) was 42.7, the AMAX (SK-N-FI (autonomic_ganglia)) was -8.91 and the RESPONSE (SK-N-FI (autonomic_ganglia)) was “REFRACTORY”. The ACTIVITY_AREA (SK-OV-3 (ovary)) was 15.78, the AMAX (SK-OV-3 (ovary)) was -2.48 and the RESPONSE (SK-OV-3 (ovary)) was “REFRACTORY”. The ACTIVITY_AREA (SK-UT-1 (soft_tissue)) was 43.67, the AMAX (SK-UT-1 (soft_tissue)) was -47.86 and the RESPONSE (SK-UT-1 (soft_tissue)) was “INTERMEDIATE”. For the same compound, the ACTIVITY_AREA (SNB-19 cells) was 46.12, the AMAX (SNB-19 cells) was -38.66 and the RESPONSE (SNB-19 cells) was “INTERMEDIATE”. For the same compound, the ACTIVITY_AREA (SNG-M (endometrium)) was 18.36, the AMAX (SNG-M (endometrium)) was -34.56 and the RESPONSE (SNG-M (endometrium)) was “INTERMEDIATE”. The ACTIVITY_AREA (SNU-1 (stomach)) was 12.42, the AMAX (SNU-1 (stomach)) was -40.73 and the RESPONSE (SNU-1 (stomach)) was “INTERMEDIATE”. For the same compound, the ACTIVITY_AREA (SNU-16 cells) was 45.05, the AMAX (SNU-16 cells) was -92.26 and the RESPONSE (SNU-16 cells) was “INTERMEDIATE”. For the same compound, the ACTIVITY_AREA (SNU-119 (ovary)) was 11.44, the AMAX (SNU-119 (ovary)) was -38.35 and the RESPONSE (SNU-119 (ovary)) was “INTERMEDIATE”. The ACTIVITY_AREA (SNU-182 (liver)) was 33.88, the AMAX (SNU-182 (liver)) was -47.55 and the RESPONSE (SNU-182 (liver)) was “INTERMEDIATE”. The ACTIVITY_AREA (SNU-216 (stomach)) was 13.08, the AMAX (SNU-216 (stomach)) was -38.81 and the RESPONSE (SNU-216 (stomach)) was “INTERMEDIATE”. For the same compound, the ACTIVITY_AREA (SNU-449 (liver)) was 71.96, the AMAX (SNU-449 (liver)) was -65.86 and the RESPONSE (SNU-449 (liver)) was “INTERMEDIATE”. The ACTIVITY_AREA [3] was 58.38, the AMAX [3] was -11.21 and the RESPONSE [3] was “REFRACTORY”. For the same compound, the ACTIVITY_AREA (SNU-878 (liver)) was 12.07, the AMAX (SNU-878 (liver)) was -56.36 and the RESPONSE (SNU-878 (liver)) was “INTERMEDIATE”. The ACTIVITY_AREA (SNU-1079 (biliary_tract)) was 17.2, the AMAX (SNU-1079 (biliary_tract)) was -58.5 and the RESPONSE (SNU-1079 (biliary_tract)) was “INTERMEDIATE”. For the same compound, the ACTIVITY_AREA [4] was 40.33, the AMAX [4] was -44.63 and the RESPONSE [4] was “INTERMEDIATE”. The ACTIVITY_AREA (SNU-C1 cells) was 40.33, the AMAX (SNU-C1 cells) was -44.63 and the RESPONSE (SNU-C1 cells) was “INTERMEDIATE”. The ACTIVITY_AREA (SNU-C5 (large_intestine)) was 45.53, the AMAX (SNU-C5 (large_intestine)) was -48.42 and the RESPONSE (SNU-C5 (large_intestine)) was “INTERMEDIATE”. For the same compound, the ACTIVITY_AREA [5] was 45.53, the AMAX [5] was -48.42 and the RESPONSE [5] was “INTERMEDIATE”. For the same compound, the ACTIVITY_AREA [6] was 108.24, the AMAX [6] was -45.46 and the RESPONSE [6] was “INTERMEDIATE”. For the same compound, the ACTIVITY_AREA [7] was 108.24, the AMAX [7] was -45.46 and the RESPONSE [7] was “INTERMEDIATE”. For the same compound, the ACTIVITY_AREA [8] was 53.27, the AMAX [8] was -92.07 and the RESPONSE [8] was “INTERMEDIATE”. For the same compound, the ACTIVITY_AREA [9] was 53.27, the AMAX [9] was -92.07 and the RESPONSE [9] was “INTERMEDIATE”. For the same compound, the ACTIVITY_AREA [10] was 38.45, the AMAX [10] was -71.62 and the RESPONSE [10] was “INTERMEDIATE”. For the same compound, the ACTIVITY_AREA [11] was 38.45, the AMAX [11] was -71.62 and the RESPONSE [11] was “INTERMEDIATE”. For the same compound, the ACTIVITY_AREA [12] was 45.11, the AMAX [12] was -80.85 and the RESPONSE [12] was “INTERMEDIATE”. For the same compound, the ACTIVITY_AREA [13] was 45.11, the AMAX [13] was -80.85 and the RESPONSE [13] was “INTERMEDIATE”. For the same compound, the ACTIVITY_AREA [14] was 24.19, the AMAX [14] was -82.38 and the RESPONSE [14] was “INTERMEDIATE”. For the same compound, the ACTIVITY_AREA [15] was 24.19, the AMAX [15] was -82.38 and the RESPONSE [15] was “INTERMEDIATE”. The ACTIVITY_AREA [16] was 44.68, the AMAX [16] was -65.49 and the RESPONSE [16] was “INTERMEDIATE”. For the same compound, the ACTIVITY_AREA [17] was 44.68, the AMAX [17] was -65.49 and the RESPONSE [17] was “INTERMEDIATE”. For the same compound, the ACTIVITY_AREA (SUM52PE (breast)) was 18.69, the AMAX (SUM52PE (breast)) was -28.85 and the RESPONSE (SUM52PE (breast)) was “INTERMEDIATE”. The ACTIVITY_AREA (SUM52PE (breast, NS)) was 18.69, the AMAX (SUM52PE (breast, NS)) was -28.85 and the RESPONSE (SUM52PE (breast, NS)) was “INTERMEDIATE”. The ACTIVITY_AREA (SUM-52 (breast)) was 9.58, the AMAX (SUM-52 (breast)) was -47.91 and the RESPONSE (SUM-52 (breast)) was “INTERMEDIATE”. The ACTIVITY_AREA (SUM-52 (breast, NS)) was 9.58.
